Reference: article doi:10.1101/643494
These are yes or no findings as the source states them, for the method shown. For some assays here: Binding seen in cells or lysates may run through a third protein. Some results given as binding are weak or reduced against the parent protein; the word gives no strength. Sequences can lack the tags named with a protein.

By UniProt entry, the sequences of proteins in these tests, tags left out.
UniProt Q9SZ06: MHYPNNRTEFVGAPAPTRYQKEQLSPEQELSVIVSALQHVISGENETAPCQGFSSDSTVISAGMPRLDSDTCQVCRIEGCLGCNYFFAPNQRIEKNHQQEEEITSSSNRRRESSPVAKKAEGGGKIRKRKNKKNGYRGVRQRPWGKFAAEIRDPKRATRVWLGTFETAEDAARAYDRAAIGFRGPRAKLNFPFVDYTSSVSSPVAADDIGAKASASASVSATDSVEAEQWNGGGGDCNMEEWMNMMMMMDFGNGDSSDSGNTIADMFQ
UniProt Q58G47: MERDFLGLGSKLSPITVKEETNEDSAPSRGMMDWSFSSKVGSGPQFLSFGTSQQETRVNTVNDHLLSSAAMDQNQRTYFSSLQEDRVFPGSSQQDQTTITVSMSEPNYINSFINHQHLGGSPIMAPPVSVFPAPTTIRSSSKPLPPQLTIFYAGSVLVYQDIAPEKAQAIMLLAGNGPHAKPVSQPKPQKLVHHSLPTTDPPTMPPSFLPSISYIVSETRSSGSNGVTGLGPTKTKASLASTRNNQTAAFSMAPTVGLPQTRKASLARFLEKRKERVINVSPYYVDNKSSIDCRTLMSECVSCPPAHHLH

Experiments:
[1] = biological target: ERF109 fused to the GAL4 BD (Arabidopsis thaliana) (UniProt Q9SZ06); experiment: two-hybrid
[2] = biological target: T1, Strep-MYB51 (Arabidopsis thaliana) (UniProt O49782); experiment: pull-down
T1 sequence: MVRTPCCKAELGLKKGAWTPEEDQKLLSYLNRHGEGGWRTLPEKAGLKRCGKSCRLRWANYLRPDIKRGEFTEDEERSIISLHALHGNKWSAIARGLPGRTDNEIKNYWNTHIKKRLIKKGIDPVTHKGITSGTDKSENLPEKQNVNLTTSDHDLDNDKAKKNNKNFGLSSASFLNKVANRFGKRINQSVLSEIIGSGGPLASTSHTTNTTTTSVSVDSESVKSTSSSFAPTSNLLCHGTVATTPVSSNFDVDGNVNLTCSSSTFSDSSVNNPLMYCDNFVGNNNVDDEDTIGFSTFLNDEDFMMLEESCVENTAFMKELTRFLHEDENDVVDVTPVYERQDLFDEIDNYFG

[3] = biological target: T2, nYFP-JAZ10 (Arabidopsis thaliana) (UniProt Q93ZM9); experiment: split reporter
T2 sequence: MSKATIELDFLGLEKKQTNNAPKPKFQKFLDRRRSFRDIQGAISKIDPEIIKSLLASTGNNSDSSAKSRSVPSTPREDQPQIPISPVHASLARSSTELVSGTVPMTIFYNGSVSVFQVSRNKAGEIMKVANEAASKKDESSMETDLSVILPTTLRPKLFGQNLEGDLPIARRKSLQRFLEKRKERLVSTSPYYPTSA

[4] = biological target: T3, JAZ8 fused to the GAL4 BD (Arabidopsis thaliana) (UniProt Q8LBM2); experiment: two-hybrid
T3 sequence: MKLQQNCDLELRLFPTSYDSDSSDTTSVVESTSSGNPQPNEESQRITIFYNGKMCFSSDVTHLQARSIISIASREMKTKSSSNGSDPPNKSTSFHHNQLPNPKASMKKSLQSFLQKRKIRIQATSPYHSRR

[5] = biological target: T4, JAZ10 fused to the GAL4 BD (Arabidopsis thaliana) (UniProt Q93ZM9); experiment: two-hybrid
T4 sequence: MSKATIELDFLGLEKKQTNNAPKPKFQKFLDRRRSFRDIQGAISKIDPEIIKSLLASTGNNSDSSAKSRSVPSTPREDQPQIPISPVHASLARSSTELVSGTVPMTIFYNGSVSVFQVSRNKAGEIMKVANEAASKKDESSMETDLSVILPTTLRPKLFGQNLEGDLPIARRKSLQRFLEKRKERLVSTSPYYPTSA

[6] = biological target: T5, JAZ3 fused to the GAL4 BD (Arabidopsis thaliana) (UniProt Q9LVI4); experiment: two-hybrid
T5 sequence: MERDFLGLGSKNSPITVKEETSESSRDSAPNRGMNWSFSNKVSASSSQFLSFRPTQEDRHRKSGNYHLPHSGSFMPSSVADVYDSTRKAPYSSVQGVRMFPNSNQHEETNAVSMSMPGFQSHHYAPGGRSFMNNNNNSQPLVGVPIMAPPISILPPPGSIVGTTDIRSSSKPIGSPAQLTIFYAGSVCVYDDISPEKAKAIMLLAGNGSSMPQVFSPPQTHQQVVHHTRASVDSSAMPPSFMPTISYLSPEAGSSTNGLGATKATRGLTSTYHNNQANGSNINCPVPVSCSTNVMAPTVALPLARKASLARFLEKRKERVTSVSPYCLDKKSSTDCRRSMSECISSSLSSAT

[7] = biological target: JAZ4 fused to the GAL4 BD (Arabidopsis thaliana) (UniProt Q58G47); experiment: two-hybrid
[8] = biological target: T6, JAZ7 fused to the GAL4 BD (Arabidopsis thaliana) (UniProt O64687); experiment: two-hybrid
T6 sequence: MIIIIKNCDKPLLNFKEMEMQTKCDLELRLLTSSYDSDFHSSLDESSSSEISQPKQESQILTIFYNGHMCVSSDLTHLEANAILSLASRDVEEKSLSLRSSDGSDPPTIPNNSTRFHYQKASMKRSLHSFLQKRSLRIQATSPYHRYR

[9] = biological target: T7, JAZ9 fused to the GAL4 BD (Arabidopsis thaliana) (UniProt Q8W4J8); experiment: two-hybrid
T7 sequence: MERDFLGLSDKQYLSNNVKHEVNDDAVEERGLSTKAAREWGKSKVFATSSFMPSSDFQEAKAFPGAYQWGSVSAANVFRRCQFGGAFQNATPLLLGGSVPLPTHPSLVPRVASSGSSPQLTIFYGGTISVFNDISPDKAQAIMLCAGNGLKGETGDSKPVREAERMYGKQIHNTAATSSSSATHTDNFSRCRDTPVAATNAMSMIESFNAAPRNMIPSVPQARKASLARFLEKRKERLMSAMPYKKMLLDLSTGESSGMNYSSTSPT

[10] = biological target: T8, JAZ11 fused to the GAL4 BD (Arabidopsis thaliana) (UniProt Q9M246); experiment: two-hybrid
T8 sequence: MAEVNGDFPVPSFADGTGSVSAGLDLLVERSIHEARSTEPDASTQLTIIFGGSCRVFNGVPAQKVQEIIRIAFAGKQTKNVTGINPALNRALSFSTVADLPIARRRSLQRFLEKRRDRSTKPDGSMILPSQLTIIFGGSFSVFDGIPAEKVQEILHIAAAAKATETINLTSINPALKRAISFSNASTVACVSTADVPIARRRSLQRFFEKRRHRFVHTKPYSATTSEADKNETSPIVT

B1: BPM3 (yeast two-hybrid fusion) (protein, UniProt O22286 1-408)
chain: MSTVGGIEQLIPDSVSTSFIETVNGSHQFTIQGYSLAKGMSPGKFIQSDIFSVGGYDWAIYFYPDGKNPEDQSSYISLFIALASDSNDIRALFELTLMDQSGKGKHKVHSHFDRALEGGPYTLKYKGSMWGYKRFFKRSALETSDYLKDDCLVINCTVGVVRARLEGPKQYGIVLPLSNMGQGLKDLLDSEVGCDIAFQVGDETYKAHKLILAARSPVFRAQFFGPIGNNNVDRIVIDDIEPSIFKAMLSFIYTDVLPNVHEITGSTSASSFTNMIQHLLAAADLYDLARLKILCEVLLCEKLDVDNVATTLALAEQHQFLQLKAFCLEFVASPANLGAVMKSEGFKHLKQSCPTLLSELLNTVAAADKSSTSGQSNKKRSASSVLGCDTTNVRQLRRRTRKEVRAVS
In the case of B1, the binding [1] is reported as “binds”.

B2: HA-JAZ10 (protein, UniProt Q93ZM9 1-197)
chain: MSKATIELDFLGLEKKQTNNAPKPKFQKFLDRRRSFRDIQGAISKIDPEIIKSLLASTGNNSDSSAKSRSVPSTPREDQPQIPISPVHASLARSSTELVSGTVPMTIFYNGSVSVFQVSRNKAGEIMKVANEAASKKDESSMETDLSVILPTTLRPKLFGQNLEGDLPIARRKSLQRFLEKRKERLVSTSPYYPTSA
With B2 the binding [2] was “binds”.

B3: unfused MYB51 (yeast three-hybrid bridge) (protein, UniProt O49782 1-352)
chain: MVRTPCCKAELGLKKGAWTPEEDQKLLSYLNRHGEGGWRTLPEKAGLKRCGKSCRLRWANYLRPDIKRGEFTEDEERSIISLHALHGNKWSAIARGLPGRTDNEIKNYWNTHIKKRLIKKGIDPVTHKGITSGTDKSENLPEKQNVNLTTSDHDLDNDKAKKNNKNFGLSSASFLNKVANRFGKRINQSVLSEIIGSGGPLASTSHTTNTTTTSVSVDSESVKSTSSSFAPTSNLLCHGTVATTPVSSNFDVDGNVNLTCSSSTFSDSSVNNPLMYCDNFVGNNNVDDEDTIGFSTFLNDEDFMMLEESCVENTAFMKELTRFLHEDENDVVDVTPVYERQDLFDEIDNYFG
For B3, the binding [1] was “binds”.

B4: MYB51-cYFP (protein, UniProt O49782 1-352)
chain: MVRTPCCKAELGLKKGAWTPEEDQKLLSYLNRHGEGGWRTLPEKAGLKRCGKSCRLRWANYLRPDIKRGEFTEDEERSIISLHALHGNKWSAIARGLPGRTDNEIKNYWNTHIKKRLIKKGIDPVTHKGITSGTDKSENLPEKQNVNLTTSDHDLDNDKAKKNNKNFGLSSASFLNKVANRFGKRINQSVLSEIIGSGGPLASTSHTTNTTTTSVSVDSESVKSTSSSFAPTSNLLCHGTVATTPVSSNFDVDGNVNLTCSSSTFSDSSVNNPLMYCDNFVGNNNVDDEDTIGFSTFLNDEDFMMLEESCVENTAFMKELTRFLHEDENDVVDVTPVYERQDLFDEIDNYFG
B4 was tested, and the binding [3] was “binds”.

B5: MYB51 fused to the GAL4 AD (protein, UniProt O49782 1-352)
chain: MVRTPCCKAELGLKKGAWTPEEDQKLLSYLNRHGEGGWRTLPEKAGLKRCGKSCRLRWANYLRPDIKRGEFTEDEERSIISLHALHGNKWSAIARGLPGRTDNEIKNYWNTHIKKRLIKKGIDPVTHKGITSGTDKSENLPEKQNVNLTTSDHDLDNDKAKKNNKNFGLSSASFLNKVANRFGKRINQSVLSEIIGSGGPLASTSHTTNTTTTSVSVDSESVKSTSSSFAPTSNLLCHGTVATTPVSSNFDVDGNVNLTCSSSTFSDSSVNNPLMYCDNFVGNNNVDDEDTIGFSTFLNDEDFMMLEESCVENTAFMKELTRFLHEDENDVVDVTPVYERQDLFDEIDNYFG
B5 was tested, and the binding [4] was “no binding”, the binding [5] was “binds” and the binding [6] was “no binding”. For the same binder, the binding [7] was “no binding”, the binding [8] was “no binding” and the binding [9] was “no binding”. For the same binder, the binding [10] was “no binding”.
